Reference: paper PMC2642630
These are yes or no findings as the source states them, for the method shown. Binding seen in cells or lysates may run through a third protein. Some results given as binding are weak or reduced against the parent protein; the word gives no strength.

Chains of the proteins cited; added tags and fusions are not shown. Residues count along the entry.
UniProt B6KJ32, residues 27-984: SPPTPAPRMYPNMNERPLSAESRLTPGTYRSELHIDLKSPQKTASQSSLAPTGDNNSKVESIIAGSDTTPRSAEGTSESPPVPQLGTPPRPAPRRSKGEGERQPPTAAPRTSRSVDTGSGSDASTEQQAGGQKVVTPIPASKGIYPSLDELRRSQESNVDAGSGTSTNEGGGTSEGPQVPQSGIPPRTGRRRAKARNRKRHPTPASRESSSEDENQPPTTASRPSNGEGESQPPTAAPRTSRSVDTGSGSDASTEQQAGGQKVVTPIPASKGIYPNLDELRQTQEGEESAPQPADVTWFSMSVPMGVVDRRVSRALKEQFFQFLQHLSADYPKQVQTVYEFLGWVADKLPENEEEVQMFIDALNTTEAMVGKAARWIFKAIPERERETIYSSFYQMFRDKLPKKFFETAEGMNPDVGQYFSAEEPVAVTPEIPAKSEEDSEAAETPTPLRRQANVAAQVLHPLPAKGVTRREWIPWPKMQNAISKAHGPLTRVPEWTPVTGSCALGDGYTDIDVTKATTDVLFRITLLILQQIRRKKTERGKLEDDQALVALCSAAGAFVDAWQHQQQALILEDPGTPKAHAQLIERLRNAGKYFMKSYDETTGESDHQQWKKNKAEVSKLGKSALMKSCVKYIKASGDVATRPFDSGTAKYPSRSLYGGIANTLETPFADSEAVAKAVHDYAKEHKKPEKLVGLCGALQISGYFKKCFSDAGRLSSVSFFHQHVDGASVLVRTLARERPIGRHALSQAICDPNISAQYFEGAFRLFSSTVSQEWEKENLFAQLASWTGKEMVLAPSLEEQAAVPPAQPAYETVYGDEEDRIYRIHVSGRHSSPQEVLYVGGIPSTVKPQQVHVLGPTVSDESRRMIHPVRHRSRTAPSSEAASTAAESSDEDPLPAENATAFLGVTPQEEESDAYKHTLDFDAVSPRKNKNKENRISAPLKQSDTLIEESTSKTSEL
UniProt B6KV60, residues 25-1479: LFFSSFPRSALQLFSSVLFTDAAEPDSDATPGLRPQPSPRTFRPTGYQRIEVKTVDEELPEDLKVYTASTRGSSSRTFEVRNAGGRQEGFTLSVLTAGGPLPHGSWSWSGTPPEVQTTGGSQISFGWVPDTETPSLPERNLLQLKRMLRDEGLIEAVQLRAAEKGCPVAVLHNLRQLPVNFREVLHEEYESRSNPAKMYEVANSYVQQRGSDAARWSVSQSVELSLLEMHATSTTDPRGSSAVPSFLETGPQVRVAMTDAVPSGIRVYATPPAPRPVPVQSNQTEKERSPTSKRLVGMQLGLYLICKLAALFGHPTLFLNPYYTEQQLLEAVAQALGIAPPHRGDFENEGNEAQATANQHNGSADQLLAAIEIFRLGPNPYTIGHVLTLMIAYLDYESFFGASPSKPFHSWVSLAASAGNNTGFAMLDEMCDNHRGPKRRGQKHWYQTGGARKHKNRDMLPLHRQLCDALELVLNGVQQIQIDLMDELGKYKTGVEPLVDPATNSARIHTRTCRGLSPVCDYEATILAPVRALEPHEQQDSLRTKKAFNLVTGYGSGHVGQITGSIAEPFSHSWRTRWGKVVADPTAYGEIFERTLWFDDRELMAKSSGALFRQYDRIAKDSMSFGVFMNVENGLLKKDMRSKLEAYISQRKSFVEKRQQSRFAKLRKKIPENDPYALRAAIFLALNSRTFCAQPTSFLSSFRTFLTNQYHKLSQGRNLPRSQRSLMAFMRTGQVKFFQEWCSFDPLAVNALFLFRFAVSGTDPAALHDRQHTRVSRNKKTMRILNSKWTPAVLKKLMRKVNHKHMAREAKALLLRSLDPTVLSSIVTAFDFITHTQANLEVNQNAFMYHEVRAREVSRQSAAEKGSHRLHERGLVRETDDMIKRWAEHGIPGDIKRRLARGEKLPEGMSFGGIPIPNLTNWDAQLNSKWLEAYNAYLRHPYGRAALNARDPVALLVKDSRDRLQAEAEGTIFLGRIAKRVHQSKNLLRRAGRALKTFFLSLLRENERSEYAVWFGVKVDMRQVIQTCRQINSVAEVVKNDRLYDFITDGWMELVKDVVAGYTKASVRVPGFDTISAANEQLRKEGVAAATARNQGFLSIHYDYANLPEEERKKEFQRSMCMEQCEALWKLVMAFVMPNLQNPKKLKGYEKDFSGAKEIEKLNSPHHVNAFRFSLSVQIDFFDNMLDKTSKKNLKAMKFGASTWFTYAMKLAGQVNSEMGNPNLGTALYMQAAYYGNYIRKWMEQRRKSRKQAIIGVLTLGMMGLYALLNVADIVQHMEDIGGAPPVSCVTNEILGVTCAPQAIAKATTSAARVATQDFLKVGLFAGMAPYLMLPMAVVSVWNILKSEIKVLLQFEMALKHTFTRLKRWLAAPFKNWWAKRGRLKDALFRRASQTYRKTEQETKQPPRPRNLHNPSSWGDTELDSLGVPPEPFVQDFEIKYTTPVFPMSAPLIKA

Legend:
[1] = target: RON4 (Toxoplasma gondii (endogenous in RH hxgprt- tachyzoites)) (UniProt B6KJ32); experiment: co-IP; intracellular parasites labelled with [35S]-methionine/cysteine for 15 min, harvested or chased 1 h, with or without BFA (5 µg/ml); lysis in 1% NP40; IP; SDS-PAGE and autoradiography
[2] = target: RON4 (Toxoplasma gondii (endogenous in RH hxgprt- tachyzoites)) (UniProt B6KJ32); experiment: co-IP; 1% NP40 and 1 M NaCl; affinity chromatography with either of the specific anti-RONs; data not shown
[3] = target: RON4 (Toxoplasma gondii (endogenous in RH hxgprt- tachyzoites)) (UniProt B6KJ32); experiment: co-IP; tachyzoites lysed in 1% NP40; IP or immuno-affinity column with anti-RON sera; Western blot in reduced condition
[4] = target: proRON2 (Toxoplasma gondii (endogenous in RH hxgprt- tachyzoites)) (UniProt B6KV60); experiment: co-IP; pulse-chase labelling, 1% NP40 lysis, IP with anti-RON2n, anti-RON5 or anti-RON8; data not shown
[5] = target: RON2 (Toxoplasma gondii (endogenous in RH hxgprt- tachyzoites)) (UniProt B6KV60); experiment: co-IP; intracellular parasites labelled with [35S]-methionine/cysteine for 15 min, harvested or chased 1 h, with or without BFA (5 µg/ml); lysis in 1% NP40; IP; SDS-PAGE and autoradiography
[6] = target: RON2 (Toxoplasma gondii (endogenous in RH hxgprt- tachyzoites)) (UniProt B6KV60); experiment: co-IP; 1% NP40 and 1 M NaCl; affinity chromatography with either of the specific anti-RONs; data not shown
[7] = target: RON2 (Toxoplasma gondii (endogenous in RH hxgprt- tachyzoites)) (UniProt B6KV60); experiment: co-IP; tachyzoites lysed in 1% NP40; IP or immuno-affinity column with anti-RON sera; Western blot in reduced condition
[8] = target: proRON4 (Toxoplasma gondii (endogenous in RH hxgprt- tachyzoites)) (UniProt B6KJ32); experiment: co-IP; intracellular parasites labelled with [35S]-methionine/cysteine for 15 min, harvested or chased 1 h, with or without BFA (5 µg/ml); lysis in 1% NP40; IP; SDS-PAGE and autoradiography

RON2 (from UniProt B6KV60 25-1479)
binding [1]: binds
binding [2]: binds
binding [3]: binds

proRON4 (from UniProt B6KJ32 27-984)
binding [4]: binds

RON4 (from UniProt B6KJ32 27-984)
binding [5]: binds
binding [6]: binds
binding [7]: binds

proRON2 (from UniProt B6KV60 25-1479)
binding [8]: binds
